{
  "source": "the supplement of paper PMC10373366",
  "note": "The other results are listed elsewhere or left out. Most values come without repeats; read them as rough.",
  "data": [
    {"test_system": "patient-derived ovarian cancer cells (PDC)", "experiment": "cell growth inhibition ratio vs untreated control (CCK8); higher = stronger inhibition of cell viability", "conditions": "10 µM; 48 h", "method": "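Natural product library (Topscience) screened at 10 µM final concentration for 48 h on ovarian cancer A2780 cells and patient-derived ovarian cancer cells (PDC) in 96-well plates; viability read by CCK8 and reported as inhibition ratio (%) relative to untreated control. Single-dose primary screen.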", "units": {"cell growth inhibition ratio": "%"}, "values": [
      {"smiles": "C/C=C1\\[C@H]2C=C(C)C[C@]1(N)c1ccc(=O)[nH]c1C2", "note": "[(-)-Huperzine A (HupA)]", "cell growth inhibition ratio": -5.91},
      {"smiles": "O=c1c(O)c(-c2ccc(O)cc2O)oc2cc(O)cc(O)c12", "note": "[Morin]", "cell growth inhibition ratio": -7.29},
      {"smiles": "CC(C)C1=CC2=CC[C@@H]3[C@](C)(CCC[C@@]3(C)C(=O)O)[C@H]2CC1", "note": "[Abietic Acid]", "cell growth inhibition ratio": 9.07},
      {"smiles": "C[C@@H]1O[C@@H](O[C@H]2[C@H](OC(=O)[C@]34CCC(C)(C)C[C@H]3C3=CC[C@@H]5[C@@]6(C)C[C@H](O)[C@H](O[C@@H]7O[C@H](CO)[C@@H](O)[C@H](O)[C@H]7O)[C@@](C)(CO)[C@@H]6CC[C@@]5(C)[C@]3(C)CC4)O[C@H](CO)[C@@H](O)[C@@H]2O)[C@H](O)[C@H](O)[C@H]1O[C@@H]1OC[C@@H](O)[C@H](O)[C@H]1O", "note": "[Polygalasaponin F]", "cell growth inhibition ratio": -4.9},
      {"smiles": "CC[C@H](CC[C@@H](C)[C@H]1CC[C@H]2[C@@H]3CC=C4C[C@@H](O[C@@H]5O[C@H](CO)[C@@H](O)[C@H](O)[C@H]5O)CC[C@]4(C)[C@H]3CC[C@]12C)C(C)C", "note": "[Eleutheroside A]", "cell growth inhibition ratio": 14.4},
      {"smiles": "COc1ccc(C[C@H]2COC(=O)[C@@H]2Cc2ccc(O[C@@H]3O[C@H](CO)[C@@H](O)[C@H](O)[C@H]3O)c(OC)c2)cc1OC", "note": "[Arctiin]", "cell growth inhibition ratio": -9.82},
      {"smiles": "O=c1c2cc(O)c(O)cc2oc2cc(O)c([C@@H]3O[C@H](CO)[C@@H](O)[C@H](O)[C@H]3O)c(O)c12", "note": "[Mangiferin]", "cell growth inhibition ratio": -6.79},
      {"smiles": "O=C(O)C1=CO[C@@H](O[C@@H]2O[C@H](CO)[C@@H](O)[C@H](O)[C@H]2O)[C@@H]2C(CO)=CC[C@H]12", "note": "[Geniposidic Acid]", "cell growth inhibition ratio": -11.2}
    ]}
  ]
}
